Sequences of proteins named here, by UniProt entry; tags and fusion partners are left off.
UniProt P10275, whole entry T878A: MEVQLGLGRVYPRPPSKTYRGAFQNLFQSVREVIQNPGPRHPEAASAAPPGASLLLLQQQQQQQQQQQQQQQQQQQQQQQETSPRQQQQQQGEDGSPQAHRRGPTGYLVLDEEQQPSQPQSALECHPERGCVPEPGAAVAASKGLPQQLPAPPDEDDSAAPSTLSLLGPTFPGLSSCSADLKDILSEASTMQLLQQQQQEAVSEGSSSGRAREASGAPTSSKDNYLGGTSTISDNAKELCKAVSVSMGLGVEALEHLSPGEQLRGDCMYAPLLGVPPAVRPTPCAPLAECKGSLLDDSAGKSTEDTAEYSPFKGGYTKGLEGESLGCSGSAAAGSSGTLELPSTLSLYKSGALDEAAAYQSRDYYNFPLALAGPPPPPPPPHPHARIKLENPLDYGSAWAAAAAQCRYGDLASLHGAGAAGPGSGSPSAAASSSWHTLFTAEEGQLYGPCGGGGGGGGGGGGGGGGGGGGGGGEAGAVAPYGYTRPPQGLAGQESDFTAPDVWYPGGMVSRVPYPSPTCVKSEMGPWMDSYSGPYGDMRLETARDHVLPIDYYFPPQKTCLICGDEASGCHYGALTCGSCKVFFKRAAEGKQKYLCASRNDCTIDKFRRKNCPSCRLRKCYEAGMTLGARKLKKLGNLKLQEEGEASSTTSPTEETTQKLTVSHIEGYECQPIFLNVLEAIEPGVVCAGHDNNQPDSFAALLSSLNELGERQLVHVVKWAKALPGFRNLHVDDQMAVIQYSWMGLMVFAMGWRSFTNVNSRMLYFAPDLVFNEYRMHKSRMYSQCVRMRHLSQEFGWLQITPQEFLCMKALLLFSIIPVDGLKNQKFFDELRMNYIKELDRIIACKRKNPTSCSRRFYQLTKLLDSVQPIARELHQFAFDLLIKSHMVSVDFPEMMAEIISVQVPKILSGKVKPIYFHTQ

According to US8003649B2 (AstraZeneca AB, priority 2007, dated 2011):

Molecular target: Androgen Receptor (AR) (Homo sapiens, UniProt P10275, T878A)
Assay: LNCaP Androgen Receptor Down-regulation Cell Assay (immunofluorescence end point)
Assay type: cell-based
Conditions: read-out: Androgen Receptor Down-regulation Assay (a) IC50/μM; LNCaP prostate carcinoma cells, compound incubation 20-22 hours, 50% reduction of the AR signal

Compound	IC50 [µM]
CN1CCC(Oc2ccc(N3CCN(c4ccc5nnc(C(F)(F)F)n5n4)CC3)cc2)CC1	3.2
O=C(NCCO)c1ccc(OC2CCN(c3ccc4nnc(C(F)(F)F)n4n3)CC2)cc1	7.4
O=C(Nc1ccc(C2CCN(c3ccc4nnc(C(F)(F)F)n4n3)CC2)cc1)C1CCOCC1	0.82
N#Cc1cc(CN2CCN(c3ccc4nnc(C(F)(F)F)n4n3)CC2)ccc1F	1.1
O=S(=O)(c1ccccc1F)N1CCN(c2ccc3nnc(C(F)(F)F)n3n2)CC1	1.8
Cc1cc(CNC(=O)c2ccc(OC3CCN(c4ccc5nnc(C(F)(F)F)n5n4)CC3)cc2)no1	2.2
COc1ccccc1C1CCN(c2ccc3nnc(C(F)(F)F)n3n2)CC1	1.4
FC(F)(F)c1nnc2ccc(N3CCC(COCCN4CCOCC4)CC3)nn12	15
FC(F)(F)c1cccc(OCC2CCN(c3ccc4nnc(C(F)(F)F)n4n3)CC2)c1	3.9
O=C(c1ccc(OC2CCN(c3ccc4nnc(C(F)(F)F)n4n3)CC2)cc1)N1CCNCC1	1.4
COc1ccc(S(=O)(=O)N2CCN(c3ccc4nnc(C(F)(F)F)n4n3)CC2)cc1OC	2.8
Fc1ccc(CN2CCN(c3ccc4nnc(C(F)(F)Cl)n4n3)CC2)cc1	1.3
Fc1ccc(CN2CCN(c3ccc4nnc(C(F)F)n4n3)CC2)cc1	5.3
CCOCC1CCN(c2ccc3nnc(C(F)(F)F)n3n2)CC1	1.5
FC(F)(F)c1nnc2ccc(N3CCC(Oc4ccc(Br)cn4)CC3)nn12 [Example 721]	> 13
COc1cccc(S(=O)(=O)N2CCCN(c3ccc4nnc(C(F)(F)F)n4n3)CC2)c1	21
FC(F)(F)c1nnc2ccc(N3CC4CN(Cc5cncc(Cl)c5)CC4C3)nn12 (stereo not shown)	1.3
N#Cc1ccc(CN2CCN(c3ccc4nnc(C(F)(F)F)n4n3)CC2)cc1F	1.9
Fc1cnc(Cl)c(CN2CCN(c3ccc4nnc(C(F)(F)F)n4n3)CC2)c1	11
COc1cc(CN2CCN(c3ccc4nnc(C(F)(F)F)n4n3)CC2)ccc1F	4.5
O=S(=O)(c1cccc(F)c1)N1CC2CN(c3ccc4nnc(C(F)(F)F)n4n3)CC2C1 (stereo not shown)	8.2
CC(F)(F)c1nnc2ccc(N3CCN(Cc4ccc(F)cc4)CC3)nn12	3
Cc1cc(COc2ccc(OC3CCN(c4ccc5nnc(C(F)(F)F)n5n4)CC3)cc2)no1	0.83
FC(F)(F)c1nnc2ccc(N3CCN(Cc4c[nH]c5cccnc45)CC3)nn12	17
COc1ccc(S(=O)(=O)N2CCCN(c3ccc4nnc(C(F)(F)F)n4n3)CC2)cc1	13
C[C@H]1CN(Cc2cc(F)cnc2Cl)CCN1c1ccc2nnc(C(F)(F)F)n2n1	22
CCNC(=O)c1ccc(OC2CCN(c3ccc4nnc(C(F)(F)F)n4n3)CC2)cc1	4.2
O=S(=O)(c1cccc(F)c1)N1CCN(c2ccc3nnc(C(F)(F)F)n3n2)CC1	1.6

Structures were worked out from names or drawings and are uncertain.
